Data on 1 molecule can be found in PMC10917647.

The assay concerns the target T1, Psc3-PK (S. pombe) (UniProt O13816).
T1 sequence: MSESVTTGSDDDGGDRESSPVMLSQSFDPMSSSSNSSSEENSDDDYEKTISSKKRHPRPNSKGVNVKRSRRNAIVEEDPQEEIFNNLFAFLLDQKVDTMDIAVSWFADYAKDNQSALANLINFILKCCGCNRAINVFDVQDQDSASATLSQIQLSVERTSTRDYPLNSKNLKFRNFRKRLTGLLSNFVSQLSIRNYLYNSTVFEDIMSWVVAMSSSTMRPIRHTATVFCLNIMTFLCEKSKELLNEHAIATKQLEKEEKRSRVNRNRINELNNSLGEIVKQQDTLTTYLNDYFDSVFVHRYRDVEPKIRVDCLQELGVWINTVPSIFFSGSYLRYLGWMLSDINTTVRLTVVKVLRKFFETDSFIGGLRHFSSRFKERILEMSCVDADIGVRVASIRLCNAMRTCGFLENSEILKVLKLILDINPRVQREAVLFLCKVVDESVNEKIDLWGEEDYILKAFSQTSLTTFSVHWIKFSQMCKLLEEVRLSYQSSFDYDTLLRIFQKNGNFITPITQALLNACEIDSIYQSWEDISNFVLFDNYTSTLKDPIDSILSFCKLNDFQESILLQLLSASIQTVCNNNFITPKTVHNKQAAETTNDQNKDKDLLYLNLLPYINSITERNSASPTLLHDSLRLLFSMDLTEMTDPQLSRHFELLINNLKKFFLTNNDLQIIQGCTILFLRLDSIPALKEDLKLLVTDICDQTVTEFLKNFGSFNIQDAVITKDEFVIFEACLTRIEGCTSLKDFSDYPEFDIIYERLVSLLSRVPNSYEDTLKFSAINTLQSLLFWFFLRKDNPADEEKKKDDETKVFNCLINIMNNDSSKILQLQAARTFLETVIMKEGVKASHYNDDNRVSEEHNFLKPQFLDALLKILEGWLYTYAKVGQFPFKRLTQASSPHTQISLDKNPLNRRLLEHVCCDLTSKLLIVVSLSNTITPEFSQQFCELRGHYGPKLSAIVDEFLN
As to the kind of experiment: affinity purification with mass spectrometry; cell extracts of WT and moa1Δ meiotic prophase I cells expressing Psc3-PK; immunopurified by anti-Pk antibodies, analysed by mass spectrometry.

These are yes or no findings as the source states them, for the method shown. In cells and extracts the contact can be indirect. A yes stands for co-enrichment or nearness to the bait. Other partners may have been found.

B1: Rec8 (protein, UniProt P36626 1-561)
chain: MFYNQDVLTKEKGGMGVIWLAATLGSKHSLRKLHKKDIMSVDIDEACDFVAFSPEPLALRLSSNLMIGVTRVWAHQYSFFHSQVSTLHLRVRKELDHFTSKPFKNIDIQNEQTNPKQLLLAEDPAFIPEVSLYDAFNLPSVDLHVDMSSFTQPKENPNISVLETLPDSTSYLINTSQNYSLRNNVSSFVYEDSRAFSTEEPLDFEFDENGDIQELTKGTINSDPSLQAASQHSNLGSVQREYNSEEQESRIHMFEIDEDVLPLPVPLQSVMDSEHNENEPRALKRRKVQKLLEPDENIELSTRTLSQWRKNYVERMIALEATKYVRRRGASSAKKKELNKFFDWESFHPLLKPWIEKLKPSNNTPSEIDDVLRNIDTSEVEVGRDVQGELGLNIPWNTSSRSNSAINSKSHSQTGSEHSTPLLDTKYRKRLPHSPSMPSRVEFLPALESSQFHETLNSELSLQLSDDFVLYKNTQEENAHLMLSMEKECANFYEYAKTAIYENNGRITFSSLLPNDLKRPVVAQAFSHLLSLATKSAFLVKQDKPYSEISVSLNLKSTDAI
For B1, the binding result is given as “binds”.
